The effect of the compound repeats well; differences between the knockouts mostly do not.
Tested on: MDA-MB-231
Test: relative cell number vs DMSO control (72 h) (% of DMSO); higher = less growth inhibition (more cells)
Method: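 QMAP-Seq: a pool of 5 breast cancer cell lines (ZR-75-1, SKBR3, HCC-38, MDA-MB-231, BT-20), each carrying 12 doxycycline-inducible Cas9 sgRNA perturbations (11 knockouts plus non-targeting sgNT), was treated with compounds for 72 h at four 10-fold doses (10 nM-10 uM or 1 nM-1 uM range). Barcodes were amplified and sequenced, and cell number was interpolated from 293T spike-in standard curves. The result is expressed as % of the median of DMSO wells. Two biological replicates.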

N[C@@H](CC(=O)N1CCn2c(nnc2C(F)(F)F)C1)Cc1cc(F)c(F)cc1F [Sitagliptin]
Details | relative cell number
sgRNA knockout: sgATF3, 10 nM | 137.34
sgRNA knockout: sgATF3, 100 nM | 119
sgRNA knockout: sgATF3, 1000 nM | 97.2
sgRNA knockout: sgATF3, 10000 nM | 109
sgRNA knockout: sgATF4, 10 nM | 113
sgRNA knockout: sgATF4, 100 nM | 102
sgRNA knockout: sgATF4, 1000 nM | 85.8
sgRNA knockout: sgATF4, 10000 nM | 152
sgRNA knockout: sgATF6, 10 nM | 98.5
sgRNA knockout: sgATF6, 100 nM | 112
sgRNA knockout: sgATF6, 1000 nM | 97.8
sgRNA knockout: sgATF6, 10000 nM | 127
sgRNA knockout: sgATG7, 10 nM | 107
sgRNA knockout: sgATG7, 100 nM | 96
sgRNA knockout: sgATG7, 1000 nM | 94.5
sgRNA knockout: sgATG7, 10000 nM | 100
sgRNA knockout: sgERN1, 10 nM | 95.4
sgRNA knockout: sgERN1, 100 nM | 137
sgRNA knockout: sgERN1, 1000 nM | 114
sgRNA knockout: sgERN1, 10000 nM | 108
sgRNA knockout: sgHSF1, 10 nM | 104
sgRNA knockout: sgHSF1, 100 nM | 97.9
sgRNA knockout: sgHSF1, 1000 nM | 102
sgRNA knockout: sgHSF1, 10000 nM | 91.1
sgRNA knockout: sgHSF2, 10 nM | 110
sgRNA knockout: sgHSF2, 100 nM | 101
sgRNA knockout: sgHSF2, 1000 nM | 106
sgRNA knockout: sgHSF2, 10000 nM | 93.2
sgRNA knockout: sgKEAP1, 10 nM | 118
sgRNA knockout: sgKEAP1, 100 nM | 130
sgRNA knockout: sgKEAP1, 1000 nM | 97.6
sgRNA knockout: sgKEAP1, 10000 nM | 93.522
sgRNA knockout: sgNFE2L2, 10 nM | 102
sgRNA knockout: sgNFE2L2, 100 nM | 94.6
sgRNA knockout: sgNFE2L2, 1000 nM | 109
sgRNA knockout: sgNFE2L2, 10000 nM | 105
sgRNA knockout: sgSLC35F2, 10 nM | 110
sgRNA knockout: sgSLC35F2, 100 nM | 106
sgRNA knockout: sgSLC35F2, 1000 nM | 129
sgRNA knockout: sgSLC35F2, 10000 nM | 90.7
sgRNA knockout: sgXBP1, 10 nM | 108
sgRNA knockout: sgXBP1, 100 nM | 134
sgRNA knockout: sgXBP1, 1000 nM | 123
sgRNA knockout: sgXBP1, 10000 nM | 94.1

CNC(=O)c1cc(Oc2ccc(NC(=O)Nc3ccc(Cl)c(C(F)(F)F)c3)cc2)ccn1 [Sorafenib]
Details | relative cell number
sgRNA knockout: sgATF3, 10 nM | 76.8
sgRNA knockout: sgATF3, 100 nM | 127
sgRNA knockout: sgATF3, 1000 nM | 95.1
sgRNA knockout: sgATF3, 10000 nM | 36.6
sgRNA knockout: sgATF4, 10 nM | 110
sgRNA knockout: sgATF4, 100 nM | 86.3
sgRNA knockout: sgATF4, 1000 nM | 79.5
sgRNA knockout: sgATF4, 10000 nM | 33.5
sgRNA knockout: sgATF6, 10 nM | 112
sgRNA knockout: sgATF6, 100 nM | 99.5
sgRNA knockout: sgATF6, 1000 nM | 103
sgRNA knockout: sgATF6, 10000 nM | 30
sgRNA knockout: sgATG7, 10 nM | 114
sgRNA knockout: sgATG7, 100 nM | 93.2
sgRNA knockout: sgATG7, 1000 nM | 82.2
sgRNA knockout: sgATG7, 10000 nM | 40.5
sgRNA knockout: sgERN1, 10 nM | 83.9
sgRNA knockout: sgERN1, 100 nM | 97
sgRNA knockout: sgERN1, 1000 nM | 103
sgRNA knockout: sgERN1, 10000 nM | 39.3
sgRNA knockout: sgHSF1, 10 nM | 91.8
sgRNA knockout: sgHSF1, 100 nM | 102
sgRNA knockout: sgHSF1, 1000 nM | 104
sgRNA knockout: sgHSF1, 10000 nM | 41.8
sgRNA knockout: sgHSF2, 10 nM | 100
sgRNA knockout: sgHSF2, 100 nM | 95
sgRNA knockout: sgHSF2, 1000 nM | 128
sgRNA knockout: sgHSF2, 10000 nM | 30.9
sgRNA knockout: sgKEAP1, 10 nM | 102
sgRNA knockout: sgKEAP1, 100 nM | 96.3
sgRNA knockout: sgKEAP1, 1000 nM | 94.5
sgRNA knockout: sgKEAP1, 10000 nM | 33.9
sgRNA knockout: sgNFE2L2, 10 nM | 95.1
sgRNA knockout: sgNFE2L2, 100 nM | 116
sgRNA knockout: sgNFE2L2, 1000 nM | 87.1
sgRNA knockout: sgNFE2L2, 10000 nM | 32.9
sgRNA knockout: sgSLC35F2, 10 nM | 110
sgRNA knockout: sgSLC35F2, 100 nM | 97
sgRNA knockout: sgSLC35F2, 1000 nM | 103
sgRNA knockout: sgSLC35F2, 10000 nM | 31.7
sgRNA knockout: sgXBP1, 10 nM | 90.5
sgRNA knockout: sgXBP1, 100 nM | 119
sgRNA knockout: sgXBP1, 1000 nM | 95.9
sgRNA knockout: sgXBP1, 10000 nM | 37.5

— the supplement of paper PMC7661543
